The other results are listed elsewhere or left out.
Columns and labels:
Assay in all cases: log2 fold change, soluble protein after heating vs DMSO (PISA); higher = thermal stabilisation; K562 lysate, 10 uM; active = over 0.2 and 3.5 SD of the protein, either way, in both replicates (recomputed)
[1] = compound: C1=CC=C(C=C1)[C@H](COC2=CC3=C(C=C2)NC(=O)N3)NC(=O)C4=CC=CN(C4=O)CC5=CC(=C(C=C5)F)F
Method in brief: (§1)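 Soluble protein was defined as the supernatant remaining after 21,000xg for 90 min, following pooling of heated aliquots and adjustment to 0.5% NP-40 at 4°C. Before that, crude K562 extract at 1 mg/mL protein in PBS pH 7.4 with 1 mM MgCl2 was treated with 10 μM compound for 30 min and heated for 3 min across 48°C-58°C. Quantification used TMTpro 16plex LC-MS/MS with channel sums equalised, and values are log-two fold changes in thermal stability relative to solvent controls from duplicates.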

Protein sequences, listed by entry. Tags and fused reporters are not part of them. Lines headed by an entry give the natural chain unless they say otherwise; changes in a name come on top.
UniProt Q9NVH2, whole entry, looked up: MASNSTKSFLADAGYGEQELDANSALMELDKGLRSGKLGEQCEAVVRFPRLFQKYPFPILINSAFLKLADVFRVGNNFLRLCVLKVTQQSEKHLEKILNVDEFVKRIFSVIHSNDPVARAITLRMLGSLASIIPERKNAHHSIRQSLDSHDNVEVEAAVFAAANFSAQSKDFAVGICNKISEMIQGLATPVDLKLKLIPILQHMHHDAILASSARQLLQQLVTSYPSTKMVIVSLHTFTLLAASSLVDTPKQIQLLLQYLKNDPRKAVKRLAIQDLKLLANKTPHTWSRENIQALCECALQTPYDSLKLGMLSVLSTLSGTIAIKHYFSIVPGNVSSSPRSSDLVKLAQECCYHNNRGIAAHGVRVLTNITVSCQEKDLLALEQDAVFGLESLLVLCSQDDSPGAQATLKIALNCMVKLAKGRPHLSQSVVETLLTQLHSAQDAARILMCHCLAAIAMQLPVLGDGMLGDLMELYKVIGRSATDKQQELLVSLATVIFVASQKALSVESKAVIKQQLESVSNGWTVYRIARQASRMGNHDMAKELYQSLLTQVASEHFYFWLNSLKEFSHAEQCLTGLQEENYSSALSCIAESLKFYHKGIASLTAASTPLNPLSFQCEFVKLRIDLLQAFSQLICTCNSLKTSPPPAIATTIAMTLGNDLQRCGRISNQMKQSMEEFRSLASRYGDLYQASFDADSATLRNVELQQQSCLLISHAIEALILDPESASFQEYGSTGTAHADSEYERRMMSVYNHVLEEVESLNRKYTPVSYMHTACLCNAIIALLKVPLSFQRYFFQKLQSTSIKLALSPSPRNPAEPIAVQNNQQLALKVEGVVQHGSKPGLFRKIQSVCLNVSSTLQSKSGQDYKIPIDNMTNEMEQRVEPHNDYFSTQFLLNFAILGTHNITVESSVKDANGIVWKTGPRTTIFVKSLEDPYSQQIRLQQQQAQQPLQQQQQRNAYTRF
UniProt Q674X7: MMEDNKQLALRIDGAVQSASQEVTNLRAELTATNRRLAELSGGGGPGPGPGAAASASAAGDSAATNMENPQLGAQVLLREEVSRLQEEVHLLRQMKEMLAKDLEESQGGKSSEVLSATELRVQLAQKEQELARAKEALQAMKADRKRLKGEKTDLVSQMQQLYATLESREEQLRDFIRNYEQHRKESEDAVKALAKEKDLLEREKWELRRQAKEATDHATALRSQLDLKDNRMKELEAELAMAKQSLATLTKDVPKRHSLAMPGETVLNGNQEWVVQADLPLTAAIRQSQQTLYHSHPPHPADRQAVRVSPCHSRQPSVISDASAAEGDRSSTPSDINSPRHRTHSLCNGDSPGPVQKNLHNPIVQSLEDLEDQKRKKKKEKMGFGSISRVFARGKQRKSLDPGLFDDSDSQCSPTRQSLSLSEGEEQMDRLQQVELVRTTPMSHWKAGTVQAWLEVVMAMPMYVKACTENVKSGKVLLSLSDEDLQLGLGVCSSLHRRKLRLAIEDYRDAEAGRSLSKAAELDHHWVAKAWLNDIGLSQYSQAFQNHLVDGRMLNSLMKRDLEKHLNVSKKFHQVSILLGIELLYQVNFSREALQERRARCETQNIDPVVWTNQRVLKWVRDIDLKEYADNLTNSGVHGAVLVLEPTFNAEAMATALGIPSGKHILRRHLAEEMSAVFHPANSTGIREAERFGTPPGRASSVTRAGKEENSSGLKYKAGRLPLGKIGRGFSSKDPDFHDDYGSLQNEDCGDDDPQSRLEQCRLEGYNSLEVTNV
UniProt P53990, whole entry, looked up: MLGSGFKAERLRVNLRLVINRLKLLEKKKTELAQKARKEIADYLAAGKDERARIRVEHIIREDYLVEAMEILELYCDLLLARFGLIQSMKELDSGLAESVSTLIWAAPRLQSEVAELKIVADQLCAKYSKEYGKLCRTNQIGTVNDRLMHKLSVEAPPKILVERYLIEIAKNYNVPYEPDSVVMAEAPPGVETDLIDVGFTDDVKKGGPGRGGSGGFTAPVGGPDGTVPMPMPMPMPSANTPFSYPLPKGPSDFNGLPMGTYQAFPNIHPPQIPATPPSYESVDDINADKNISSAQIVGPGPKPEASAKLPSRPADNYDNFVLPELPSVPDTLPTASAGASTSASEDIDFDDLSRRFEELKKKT
UniProt P33947: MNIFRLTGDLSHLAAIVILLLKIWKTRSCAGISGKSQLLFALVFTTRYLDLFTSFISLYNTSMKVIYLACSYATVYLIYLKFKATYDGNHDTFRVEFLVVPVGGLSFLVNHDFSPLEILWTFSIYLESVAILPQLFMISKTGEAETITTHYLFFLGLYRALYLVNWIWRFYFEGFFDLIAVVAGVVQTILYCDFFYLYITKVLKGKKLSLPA
UniProt O00180: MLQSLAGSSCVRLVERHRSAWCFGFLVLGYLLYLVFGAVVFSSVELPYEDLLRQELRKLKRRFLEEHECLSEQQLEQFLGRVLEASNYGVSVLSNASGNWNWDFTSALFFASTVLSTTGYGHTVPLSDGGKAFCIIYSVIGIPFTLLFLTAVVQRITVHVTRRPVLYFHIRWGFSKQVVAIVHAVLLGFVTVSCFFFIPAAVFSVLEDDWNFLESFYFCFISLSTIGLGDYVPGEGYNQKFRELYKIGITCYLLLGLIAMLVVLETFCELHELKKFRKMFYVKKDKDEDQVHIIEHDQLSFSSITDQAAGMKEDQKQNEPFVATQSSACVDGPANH
UniProt Q9BUE6: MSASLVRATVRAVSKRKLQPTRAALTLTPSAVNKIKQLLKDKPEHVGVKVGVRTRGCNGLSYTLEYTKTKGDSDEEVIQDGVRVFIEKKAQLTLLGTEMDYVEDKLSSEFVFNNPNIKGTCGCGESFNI
UniProt Q14643, whole entry, looked up: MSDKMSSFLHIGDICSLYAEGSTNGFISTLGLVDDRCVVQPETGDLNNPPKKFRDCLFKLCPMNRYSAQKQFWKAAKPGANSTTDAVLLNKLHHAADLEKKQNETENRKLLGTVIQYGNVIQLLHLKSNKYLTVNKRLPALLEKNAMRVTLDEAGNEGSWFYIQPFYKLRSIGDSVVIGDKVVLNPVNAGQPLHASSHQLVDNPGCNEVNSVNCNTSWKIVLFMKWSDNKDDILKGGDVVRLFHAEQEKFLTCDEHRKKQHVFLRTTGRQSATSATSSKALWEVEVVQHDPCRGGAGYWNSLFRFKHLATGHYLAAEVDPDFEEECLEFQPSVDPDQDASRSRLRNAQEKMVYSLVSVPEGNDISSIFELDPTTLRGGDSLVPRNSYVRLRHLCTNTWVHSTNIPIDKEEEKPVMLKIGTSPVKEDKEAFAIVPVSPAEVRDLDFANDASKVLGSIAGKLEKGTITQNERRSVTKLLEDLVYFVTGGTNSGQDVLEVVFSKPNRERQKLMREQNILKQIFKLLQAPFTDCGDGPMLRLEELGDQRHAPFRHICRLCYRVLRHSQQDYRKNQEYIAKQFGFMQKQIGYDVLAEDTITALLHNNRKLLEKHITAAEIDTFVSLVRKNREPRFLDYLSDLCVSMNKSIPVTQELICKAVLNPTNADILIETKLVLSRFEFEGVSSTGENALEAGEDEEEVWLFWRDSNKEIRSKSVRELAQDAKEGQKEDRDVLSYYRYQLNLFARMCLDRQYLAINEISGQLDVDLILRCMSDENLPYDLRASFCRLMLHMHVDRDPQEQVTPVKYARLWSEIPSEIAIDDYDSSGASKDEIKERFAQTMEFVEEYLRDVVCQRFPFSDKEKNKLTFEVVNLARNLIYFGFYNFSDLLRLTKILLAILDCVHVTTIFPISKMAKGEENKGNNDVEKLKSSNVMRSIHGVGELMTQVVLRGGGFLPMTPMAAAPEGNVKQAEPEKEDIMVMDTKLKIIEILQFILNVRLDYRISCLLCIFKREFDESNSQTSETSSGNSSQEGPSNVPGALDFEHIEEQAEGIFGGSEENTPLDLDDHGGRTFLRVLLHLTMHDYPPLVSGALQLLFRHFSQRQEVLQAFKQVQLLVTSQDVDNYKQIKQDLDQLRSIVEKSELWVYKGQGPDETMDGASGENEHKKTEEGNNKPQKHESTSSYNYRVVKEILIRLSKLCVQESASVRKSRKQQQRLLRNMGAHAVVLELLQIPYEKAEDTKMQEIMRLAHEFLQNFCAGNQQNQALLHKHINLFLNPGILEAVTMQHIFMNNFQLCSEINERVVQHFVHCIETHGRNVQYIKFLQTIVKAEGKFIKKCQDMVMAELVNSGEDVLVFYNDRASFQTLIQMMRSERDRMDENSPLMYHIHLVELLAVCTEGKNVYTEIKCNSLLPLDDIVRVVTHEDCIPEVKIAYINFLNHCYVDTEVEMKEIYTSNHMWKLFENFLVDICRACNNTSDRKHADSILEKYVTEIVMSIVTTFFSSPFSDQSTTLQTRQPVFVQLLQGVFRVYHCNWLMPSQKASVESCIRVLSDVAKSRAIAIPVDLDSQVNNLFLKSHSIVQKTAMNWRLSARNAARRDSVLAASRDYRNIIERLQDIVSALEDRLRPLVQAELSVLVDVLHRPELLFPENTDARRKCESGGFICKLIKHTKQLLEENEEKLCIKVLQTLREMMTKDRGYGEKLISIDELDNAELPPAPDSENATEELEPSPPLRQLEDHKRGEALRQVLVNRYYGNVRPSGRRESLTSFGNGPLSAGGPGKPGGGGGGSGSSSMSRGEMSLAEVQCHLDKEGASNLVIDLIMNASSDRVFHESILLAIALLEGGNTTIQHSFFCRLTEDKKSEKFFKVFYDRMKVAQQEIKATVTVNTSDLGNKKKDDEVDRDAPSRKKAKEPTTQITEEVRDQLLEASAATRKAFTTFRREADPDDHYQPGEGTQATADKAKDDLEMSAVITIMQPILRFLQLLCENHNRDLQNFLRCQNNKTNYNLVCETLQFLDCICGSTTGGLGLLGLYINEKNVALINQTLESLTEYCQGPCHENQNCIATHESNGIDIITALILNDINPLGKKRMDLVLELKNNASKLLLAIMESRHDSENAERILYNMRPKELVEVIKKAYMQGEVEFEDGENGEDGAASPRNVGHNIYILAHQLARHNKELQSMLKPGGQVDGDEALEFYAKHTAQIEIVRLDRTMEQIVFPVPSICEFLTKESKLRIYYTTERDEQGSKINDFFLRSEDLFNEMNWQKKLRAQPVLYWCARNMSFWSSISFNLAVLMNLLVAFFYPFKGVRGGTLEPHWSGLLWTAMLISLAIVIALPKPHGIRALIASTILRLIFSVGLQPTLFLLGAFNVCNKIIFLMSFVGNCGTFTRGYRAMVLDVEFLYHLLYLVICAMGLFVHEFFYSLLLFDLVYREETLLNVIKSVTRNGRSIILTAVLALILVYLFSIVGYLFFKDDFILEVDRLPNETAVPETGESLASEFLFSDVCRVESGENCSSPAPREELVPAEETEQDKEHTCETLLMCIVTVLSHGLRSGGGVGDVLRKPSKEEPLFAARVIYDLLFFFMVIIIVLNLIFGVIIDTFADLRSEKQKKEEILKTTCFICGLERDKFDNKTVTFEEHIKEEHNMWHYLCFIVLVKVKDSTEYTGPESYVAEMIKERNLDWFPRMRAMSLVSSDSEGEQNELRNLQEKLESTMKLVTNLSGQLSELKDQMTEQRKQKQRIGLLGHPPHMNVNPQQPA
UniProt Q8IY47: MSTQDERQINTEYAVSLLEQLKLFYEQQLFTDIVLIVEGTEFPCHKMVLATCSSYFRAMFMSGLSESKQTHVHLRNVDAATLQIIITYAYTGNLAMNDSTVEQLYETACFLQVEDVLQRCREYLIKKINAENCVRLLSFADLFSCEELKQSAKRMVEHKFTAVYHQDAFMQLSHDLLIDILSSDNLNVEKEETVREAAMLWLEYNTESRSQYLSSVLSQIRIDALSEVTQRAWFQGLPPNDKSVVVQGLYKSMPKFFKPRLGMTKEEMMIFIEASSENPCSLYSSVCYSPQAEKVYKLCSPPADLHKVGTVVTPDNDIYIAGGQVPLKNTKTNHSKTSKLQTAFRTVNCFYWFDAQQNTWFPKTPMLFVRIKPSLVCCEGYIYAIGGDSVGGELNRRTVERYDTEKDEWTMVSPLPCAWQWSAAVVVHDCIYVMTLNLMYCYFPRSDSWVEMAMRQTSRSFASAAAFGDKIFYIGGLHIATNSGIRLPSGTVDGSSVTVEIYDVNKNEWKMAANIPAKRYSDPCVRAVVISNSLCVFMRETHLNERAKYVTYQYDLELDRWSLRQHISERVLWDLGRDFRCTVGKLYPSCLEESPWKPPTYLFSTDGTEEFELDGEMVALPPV
UniProt Q9Y287, whole entry, looked up: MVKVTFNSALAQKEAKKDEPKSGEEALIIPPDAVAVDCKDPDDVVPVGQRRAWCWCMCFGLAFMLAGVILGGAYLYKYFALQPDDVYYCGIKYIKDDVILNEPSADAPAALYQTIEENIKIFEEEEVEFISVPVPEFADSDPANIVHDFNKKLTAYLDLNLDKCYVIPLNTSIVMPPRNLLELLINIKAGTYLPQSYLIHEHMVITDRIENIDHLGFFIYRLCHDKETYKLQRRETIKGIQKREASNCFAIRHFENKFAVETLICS
UniProt Q9H1K1: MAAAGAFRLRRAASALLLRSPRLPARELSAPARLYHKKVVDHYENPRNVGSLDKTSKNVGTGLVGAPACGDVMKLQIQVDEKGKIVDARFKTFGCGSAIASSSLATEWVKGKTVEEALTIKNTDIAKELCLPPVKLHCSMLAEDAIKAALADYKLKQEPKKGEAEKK

[2] = compound: CC1=C(SC2=C1C(=N[C@H](C3=NN=C(N32)C)CC(=O)N)C4=CC=C(C=C4)Cl)C
Method in brief: as §1

[3] = compound: CC1=C2C(=CC=C1)N=C(N(C2=O)C3=CC=CC=C3C)CN4C=NC5=C(N=CN=C54)N
Method in brief: as §1

[4] = compound: Cc1sc2c(c1C)C(c1ccc(Cl)cc1)=N[C@@H](CC(=O)OC(C)(C)C)c1nnc(C)n1-2
Method in brief: as §1

[5] = compound: c1ccc([C@@H]2C[C@H]2NC2CCNCC2)cc1
Method in brief: as §1

Measured: log2 fold change

INTS7 (UniProt Q9NVH2)
inactive: [1] -0.06 | [2] 0.007 | [3] 0.016 | [4] 0.009 | [5] -0.001

KAZN (UniProt Q674X7)
inactive: [1] 0.085 | [2] 0.019 | [3] 0.054 | [4] -0.055 | [5] 0.012

IPO9 (UniProt Q96P70)
inactive: [1] -0.007 | [2] 0 | [3] -0.002 | [4] -0.014 | [5] -0.044

KCT2 (UniProt Q8NC54)
inactive: [1] 0.069 | [2] -0.008 | [3] -0.05 | [4] -0.033 | [5] -0.173

IST1 (UniProt P53990)
inactive: [1] -0.008 | [2] 0.009 | [3] 0.03 | [4] 0.01 | [5] 0.044

JUND (UniProt P17535)
inactive: [1] -0.008 | [2] 0.043 | [3] -0.028 | [4] 0.03 | [5] -0.12

KDELR2 (UniProt P33947)
inactive: [1] -0.038 | [2] -0.069 | [3] 0.317 | [4] -0.109 | [5] -0.19

ISCA2 (UniProt Q86U28)
inactive: [1] 0.002 | [2] -0.102 | [3] -0.02 | [4] 0.022 | [5] -0.031

JAGN1 (UniProt Q8N5M9)
inactive: [1] 0.064 | [2] -0.077 | [3] -0.029 | [4] -0.024 | [5] -0.008

IRF2BPL (UniProt Q9H1B7)
inactive: [1] 0.055 | [2] -0.057 | [3] 0 | [4] 0.047 | [5] -0.134

IWS1 (UniProt Q96ST2)
inactive: [1] 0.019 | [2] -0.003 | [3] 0.009 | [4] -0.007 | [5] -0.003

IPO5 isoform 3 (UniProt O00410)
inactive: [1] 0.007 | [2] -0.008 | [3] 0.004 | [4] 0.007 | [5] 0.032

KAT8 (UniProt Q9H7Z6)
inactive: [1] 0.079 | [2] -0.001 | [3] -0.082 | [4] 0.037 | [5] 0.063

KCTD13 (UniProt Q8WZ19)
inactive: [1] 0.3 | [2] -0.161 | [4] 0.008

IVNS1ABP (UniProt Q9Y6Y0)
inactive: [1] 0.032 | [2] 0.069 | [3] 0.026 | [4] 0.072 | [5] 0.002

KCNK1 (UniProt O00180)
inactive: [1] -0.17 | [2] 0.134 | [3] 0.201 | [4] 0.155 | [5] -0.115

ISCA1 isoform 2 (UniProt Q9BUE6)
inactive: [1] 0.005 | [2] -0.03 | [3] 0.016 | [4] -0.021 | [5] 0.099

IRF2BP1 (UniProt Q8IU81)
inactive: [1] -0.048 | [2] -0.013 | [3] -0.043 | [4] 0.017 | [5] -0.045

KCTD20 (UniProt Q7Z5Y7)
inactive: [1] -0.031 | [2] -0.011 | [3] 0.097 | [4] -0.009 | [5] 0.078

ITPR1 (UniProt Q14643)
inactive: [1] 0.004 | [2] 0 | [3] 0.045 | [5] -0.115

KBTBD2 (UniProt Q8IY47)
inactive: [1] 0.016 | [2] -0.005 | [3] 0.025 | [4] 0.012 | [5] -0.119

2 entries picked at random from the list so far:
KBTBD2 (UniProt Q8IY47)
inactive: [1] 0.016 | [2] -0.005 | [3] 0.025 | [4] 0.012 | [5] -0.119

IRF2BP1 (UniProt Q8IU81)
inactive: [1] -0.048 | [2] -0.013 | [3] -0.043 | [4] 0.017 | [5] -0.045

Further entries.

KATNAL1 (UniProt Q9BW62)
inactive: [1] -0.029 | [2] 0.151 | [3] -0.075 | [4] -0.144 | [5] -0.002

ITM2B (UniProt Q9Y287)
active: [3] 0.43
inactive: [1] -0.019 | [2] -0.032 | [4] 0.058 | [5] -0.027

ISCU (UniProt Q9H1K1)
inactive: [1] -0.001 | [2] 0.003 | [3] -0.053 | [4] 0.036 | [5] 0.014

ITPKA (UniProt P23677)
inactive: [1] -0.022 | [2] 0.006 | [3] -0.017 | [4] -0.012 | [5] -0.013
